# Experimental data published in PubChem BioAssay AID651664 (NMMLSC, 2012).
# In all, about 1,800 compounds went through this assay and fewer than 10 were called active.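 Rule for the calls: active = inhibition of granule release above a set limit; inactive = the rest.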 The list shows a part of the results.
# Test: LAMP-1 surface externalization blockers in TALL-104 cells – cell-based, flow cytometry, validation set (AID 651664)
# Details: TALL-104 LAMP-1 externalization, at 15.2 µM, hits give high values, stimulated with thapsigargin and PMA
row,Structure (SMILES),inhibition
1,CCOc1ccc(C(C)NC(=O)CCC(=O)O)cc1 (stereo unspecified),inactive: -2.7%
2,CCn1c(C)nc2cc(C(=O)NNS(=O)(=O)c3ccc(C)c(C)c3)ccc21,inactive: -1.7%
3,O=C(CSCc1ccccc1)N1CCN(c2cccc(C(F)(F)F)c2)CC1,inactive: -1.6%
4,CSc1nc(-c2ccc(Cl)cc2)nn1C(=O)c1ccco1,inactive: 7%
5,CCN1CCN(CC(=O)Nc2sc3c(c2C#N)CCC(C)C3)CC1 (stereo unspecified),inactive: -7%
6,Cc1ccc(S(=O)(=O)/N=C(/Nc2ccccn2)c2ccc(Cl)cc2)cc1,inactive: -5.5%
7,O=S(=O)(CCc1nc2ccccc2o1)c1ccc(Cl)c(Cl)c1,inactive: -2.2%
8,N#CC1=C(N)OC2=C(CN(Cc3ccccc3)C/C2=C\c2cccnc2)C1c1cccnc1 (stereo unspecified),inactive: -2.1%
9,CCc1ccc(-n2c(SCC(=O)Nc3cc(C)[nH]n3)nc3[nH]ncc3c2=O)cc1,inactive: -1.2%
10,CC(NC(=O)Cc1ccc(-c2ccccc2)cc1)c1ccccc1 (stereo unspecified),inactive: 7.7%
11,CC(=O)c1c(C(C)=O)c(C)n(C2CCCCC2)c1C,inactive: -1.3%
12,CCOc1ccc(OCC)c(NC(=O)CN(C)S(=O)(=O)c2cnc[nH]2)c1,inactive: 3.7%
13,CCN(CC)c1nc(N2CCOCC2)c(C#N)c2c1CN(C)CC2,inactive: -1.2%
14,O=c1c2cnn(-c3ccc(F)cc3)c2ncn1Cc1ccc(F)cc1,inactive: 2.9%
15,CCc1ccc2[nH]c(=O)c(CN(CCN(CC)CC)C(=O)NC3CCCCC3)cc2c1,inactive: -1.5%
16,COC(=O)/C=c1\sc2ncnn2c1=O,inactive: -0.5%
17,CCc1cccc(C)c1NC(=O)c1cccc(N(C)C)c1,inactive: -0.4%
18,CCOCCCNC(=O)C1CCCN(S(=O)(=O)CC)C1 (stereo unspecified),inactive: 0.3%
19,Cc1ccc(-c2csc(N(Cc3ccco3)C(=O)c3cccs3)n2)cc1,inactive: 4.8%
20,O=C1C=C(N2CCN(C(=O)c3ccccc3)CC2)C2(CCCCC2)O1,inactive: -4.4%
21,NC(=O)C1=NOC(CNc2ncc(C(F)(F)F)cc2Cl)C1 (stereo unspecified),inactive: -1.1%
22,O=C1NC(=O)C2(CCc3ccccc32)N1 (stereo unspecified),inactive: 2.7%
23,O=C(CN1CCN(c2ncc(C(F)(F)F)cc2Cl)CC1)NCCNc1ncc(C(F)(F)F)cc1Cl,inactive: 55.4%
24,COc1ccc(-c2csc(Nc3ncccc3C)n2)cc1,inactive: -0.4%
25,CC(Oc1ccc(Cl)cc1Cl)C(=O)N(Cc1ccco1)C1CCS(=O)(=O)C1 (stereo unspecified),inactive: -0.5%
26,COc1ccccc1CNC(=O)c1cc2c(C)nn(Cc3ccc(F)cc3)c2s1,inactive: 2.1%

row,Structure (SMILES),inhibition
1,CCOC(=O)c1c(=O)n(O)c2ccc(C)cc2[n+]1[O-],inactive: 3.2%
2,COc1ccccc1Nc1ncnc2ccccc12,inactive: 2.9%
3,CC(=O)c1ccc(N2CCN(CCC#N)CC2)c(F)c1,inactive: 8.2%
4,Cc1ccc(-c2ccc(CCC(=O)O)n2NC(=O)c2ccco2)cc1,inactive: 3.9%
5,Cc1ccc(S(=O)(=O)N2CCN(C(=O)c3cc4c(C)nn(-c5ccccc5C)c4s3)CC2)cc1,inactive: -1.8%
6,CCCCc1n[nH]c2c1/C(=N/O)CC(c1ccccc1)C2 (stereo unspecified),inactive: 1%
7,O=C1c2ccccc2C(=O)N1OCc1ccc(Cl)cc1,inactive: -0.9%
8,CC(C)(C)n1ncc2c(=O)n(Cc3ccc(Cl)cc3Cl)cnc21,inactive: 1.4%
9,O=c1c2ccccc2nc2ccc(NCc3ccco3)nn12,inactive: -1.2%
10,COc1ccc(Nc2ncnc3c2oc2ccccc23)cc1,inactive: -0.9%
11,COc1cc(/C=N/Nc2snc(SC)c2C#N)cc(OC)c1OC,inactive: 0.9%
12,C=CCn1c(=N)c(C(=O)NCCCOC)cc2c(=O)n3cccc(C)c3nc21,inactive: 2.4%
13,CCOc1ccc(N=C2NC(=O)C(CC(=O)O)S2)cc1 (stereo unspecified),inactive: 1.9%
14,CC(=O)N1CCN(C(=O)CSc2nc3c(cnn3-c3ccccc3)c(=O)[nH]2)CC1,inactive: -4.1%
15,COc1ccc(C(=O)NCc2cn3ccccc3n2)cc1,inactive: -3.2%
16,Cc1ccc(NC(=O)COc2ccccc2)c(NC(=O)c2ccccc2C)c1,inactive: -0.5%
17,COc1ccc(C(=O)CSc2nnc(CNC(=O)c3ccc(OC)c(OC)c3)n2C)cc1,inactive: 0.7%
18,Fc1ccc(NC(=S)N2CCCC2)cc1,inactive: -1.6%
19,O=C(NCc1ccco1)c1ccc(CS(=O)(=O)Cc2ccc(F)cc2)o1,inactive: -3%
20,S=C(NCCC(c1ccccc1)c1ccccc1)Nc1cccc(Cl)c1,inactive: 3.1%
21,O=[N+]([O-])c1ccc(N/N=C/c2cn(-c3ccccc3)nc2-c2ccccc2)cc1,inactive: -0.4%
22,CCOc1ccc(CCNC(=O)C2CCCN(c3nnc(-n4cccc4)s3)C2)cc1OCC (stereo unspecified),inactive: -2.8%
23,CN(Cc1nc(-c2ccccn2)no1)S(=O)(=O)c1ccc(Br)cc1,inactive: -0.1%
24,Cc1ccc(-c2nnc(SCC(=O)NCC3CCCO3)n2C)cc1 (stereo unspecified),inactive: 5.4%
25,CCOC(=O)C(C)On1c(-c2ccccc2)nc2ccc([N+](=O)[O-])cc21 (stereo unspecified),inactive: 4.1%
26,N#CC1=C(N)Oc2n[nH]c(-c3cccs3)c2C1c1ccsc1 (stereo unspecified),inactive: 8.2%

row,Structure (SMILES),inhibition
1,C=CCn1c(-c2ccco2)n[nH]c1=S,inactive: -0.5%
2,N#CC1=C(N)NC(SCC(=O)Nc2ccc(Br)cc2)=C(C#N)C12CCCCC2,inactive: -1.1%
3,Cc1cc2cc(NC(=O)c3ccco3)ccc2[nH]1,inactive: -1.7%
4,CC(NC(=O)NCCCC(=O)O)(C(F)(F)F)C(F)(F)F,inactive: 2%
5,Cc1n(CC(O)COC2CCCCC2)c2ccccc2[n+]1C (stereo unspecified),inactive: -0.4%
6,COc1ccc(C)cc1-n1nnnc1SCc1cn2ccsc2n1,inactive: -3.3%
7,Cc1cccc(NC(=O)c2cc(-c3ccco3)nc3ccccc23)n1,inactive: -0.2%
8,COc1ccc(-c2cc(C(F)F)n3ncc(C(=O)N4CCSCC4)c3n2)cc1,inactive: -4.4%
9,Cc1c(C(=O)NC(C)C)oc2c1-c1[nH]ncc1CC2,inactive: -0.6%
10,COc1cccc(C2C3=C(N=C4SCC(=O)N42)c2ccccc2CC3)c1OC (stereo unspecified),inactive: -3.4%
11,O=C1c2ccccc2C(=O)N1SC1CCCCC1,inactive: -1.8%
12,O=C(NCc1ccccc1)c1c[nH]c2ccc(S(=O)(=O)Nc3ccc4c(c3)OCCO4)cc2c1=O,inactive: 1.8%
13,O=C(Nc1ccccc1C(=O)NCCCn1ccnc1)c1ccc(Cl)cc1Cl,inactive: 3%
14,Cc1nn(Cc2ccccc2Cl)c(C)c1N,inactive: -0.7%
15,CCOC(=O)N1CCN(C(c2cccnc2)c2ccc3cccnc3c2O)CC1 (stereo unspecified),inactive: -2%
16,CCOc1cc(CNc2ccc(O)cc2)ccc1OCc1ccc(Cl)cc1Cl,inactive: 1.4%
17,O=c1cc(NCCO)c2ccccc2o1,inactive: -1.9%
18,CCCn1c(=O)[nH]c(=O)c2c1nc(-c1ccc(OC(F)(F)C(F)C(F)(F)F)cc1)n2CCOC (stereo unspecified),inactive: -0.5%
19,COc1ccc(-c2ccc(=O)n(CC(=O)Nc3ccc(C(=O)NC4CC4)cc3)n2)cc1OC,inactive: 1.4%
20,Cc1nnc(N(CCC#N)CCC#N)s1,inactive: 0%
21,CN(C)CCNC(=O)c1coc(=O)c(Br)c1,inactive: -1.1%
22,Cc1cccc(CN2C(=O)N/C(=C/c3ccc(C)s3)C2=O)c1,inactive: -1.5%
23,COC(=O)c1[nH]c2ccccc2c1NC(=O)CN1CCN(C(=O)c2ccco2)CC1,inactive: -1.7%
24,Cc1ccc2nc(-c3ccccc3)cn2c1,inactive: -3.7%

# 6 of the compounds above, with bars between the fields:
row | Structure (SMILES) | inhibition
16 | CCOc1cc(CNc2ccc(O)cc2)ccc1OCc1ccc(Cl)cc1Cl | inactive: 1.4%
17 | O=c1cc(NCCO)c2ccccc2o1 | inactive: -1.9%
18 | CCCn1c(=O)[nH]c(=O)c2c1nc(-c1ccc(OC(F)(F)C(F)C(F)(F)F)cc1)n2CCOC (stereo unspecified) | inactive: -0.5%
19 | COc1ccc(-c2ccc(=O)n(CC(=O)Nc3ccc(C(=O)NC4CC4)cc3)n2)cc1OC | inactive: 1.4%
20 | Cc1nnc(N(CCC#N)CCC#N)s1 | inactive: 0%
21 | CN(C)CCNC(=O)c1coc(=O)c(Br)c1 | inactive: -1.1%
